# Assay results published in PubChem BioAssay AID540276 (National Center for Advancing Translational Sciences (NCATS), 2011).
# Hit rate of the full screen: of about 300,000 compounds, about 5,400 (1.8%) were called active. Inconclusive means that the source gave no clear call. Such entries were picked first, then a sample of the others. Calls follow the shape of the full dose curve; tested in HEK293 cells. Potencies of inconclusive entries are doubtful fits and often do not repeat.
# Assay: qHTS for inhibitors of binding or entry into cells for Marburg Virus
# Details: Marburg virus pseudotyped entry inhibition, cell reporter; activity change, negative = inhibition: at 37.8 µM (top of the series) unless noted
# % is scaled to controls: 0 for no effect and ±100 for the full control effect; potency is read from the fitted curve at half-maximal effect.
Structure (SMILES),Potency,"activity change, negative = inhibition"
COc1ccc(C(=O)N/N=C(\C)c2ccc(NC(=O)Cc3ccccc3)cc2)c(OC)c1,"inconclusive: 17.8 µM [activator, partial curve]",–
COc1cccc(OCCNc2cc(N3CCOCC3)ccc2[N+](=O)[O-])c1,inactive,–
COc1ccc(C(=O)CC(=O)C(=O)Nc2cccc(C(C)=O)c2)cc1,inactive,–
O=C(c1cc(-c2ccccc2Cl)on1)N1CCCC1,active: 11.2 µM,–
CN(c1cccc(Cl)c1)S(=O)(=O)c1cccc(C(=O)Nc2ccc3c(c2)CCC3)c1,active: 2.24 µM,–
Cc1ccc(N2C(=O)/C(=C/c3cccnc3)SC2=S)cc1,inactive,–
O=C(NCC(O)c1ccc([N+](=O)[O-])cc1)c1cccc(S(=O)(=O)N2CCCC2)c1 (configuration not stated),"inconclusive: 2.51 µM [inhibitor, single point]",–
CCN(CC)CC(O)Cn1c2ccccc2c2ccccc21 (configuration not stated),active: 12.6 µM,–
COc1ccc(-c2oc3ncn(Cc4ccco4)c(=N)c3c2-c2ccc(OC)cc2)cc1,"inconclusive: 35.5 µM [inhibitor, single point]",–
CC(C)(C)c1cc(P(=O)(c2ccccc2)c2ccccc2)ccc1O,"inconclusive: 12.6 µM [inhibitor, single point]",–
O=C(c1ccc(Br)o1)N1CCN(Cc2ccc3c(c2)OCO3)CC1,"inconclusive: 29.1 µM [inhibitor, single point]",–
COc1ccccc1N1CCN(C(=O)c2cc(-c3cccs3)on2)CC1,"inconclusive: 22.4 µM [activator, single point]",–
O=C(/C=C/c1ccc(Cl)cc1Cl)Nc1ccncc1,"inconclusive: 17.8 µM [inhibitor, single point]",–
CCN1CCN(C(=O)C2CCN(S(=O)(=O)c3ccc4c(c3)NC(=O)C(C)S4)CC2)CC1 (configuration not stated),"inconclusive: 35.5 µM [inhibitor, single point]",–
Cc1cc(C=C2C(=O)N(C)C(=S)N(C)C2=O)c(C)n1C1CCCC1,"inconclusive: 5.62 µM [inhibitor, single point]",–
CCC(=O)N1CCc2cc(S(=O)(=O)NC(Cc3ccccc3)C(=O)NC3CCCCC3)ccc21 (configuration not stated),"inconclusive: 3.55 µM [inhibitor, single point]",–
Cc1onc(-c2ccccc2)c1CNS(=O)(=O)c1cccc(Br)c1,"inconclusive: 14.1 µM [inhibitor, partial curve, poor fit]",–
O=C1CCCC(O)=C1C(C#Cc1ccccc1)C1=C(O)CCCC1=O,"inconclusive: 29.1 µM [inhibitor, single point]",–
COc1cc(C(=O)NCC(=O)OC(C)C(=O)Nc2ncc(Cl)cc2Cl)cc(OC)c1OC (configuration not stated),inactive,–
CC(=O)Nc1ccc(N=Nc2ccccc2)cc1,"inconclusive: 0.501 µM [activator, full curve, poor fit]",–
Cc1ccc(S(=O)(=O)N2CCC(C(=O)Nc3nnc(-c4ccco4)s3)CC2)cc1,inactive,–

# Part of the list above, bar-delimited:
Structure (SMILES) | Potency | activity change, negative = inhibition
CN(c1cccc(Cl)c1)S(=O)(=O)c1cccc(C(=O)Nc2ccc3c(c2)CCC3)c1 | active: 2.24 µM | –
Cc1ccc(N2C(=O)/C(=C/c3cccnc3)SC2=S)cc1 | inactive | –
COc1ccc(-c2oc3ncn(Cc4ccco4)c(=N)c3c2-c2ccc(OC)cc2)cc1 | inconclusive: 35.5 µM [inhibitor, single point] | –

# (cont.)

Structure (SMILES),Potency,"activity change, negative = inhibition"
CCCCOc1ncnc2c1[nH]c1ccc(F)cc12,"inconclusive: 4.61 µM [inhibitor, partial curve]",–
CC1(C)CC(NC(=O)c2ccc(Br)o2)CC(C)(C)N1,"inconclusive: 10 µM [activator, partial curve, poor fit]",–
Cc1ccc2[nH]c(=O)c(CN(Cc3cccs3)C(=S)NCc3ccco3)cc2c1,"inconclusive: 35.5 µM [inhibitor, single point]",–
CCCCC1S/C(=N/N=C/c2cccs2)NC1=O (configuration not stated),"inconclusive: 0.199 µM [activator, full curve, poor fit]",–
CS(=O)(=O)N1N=C(c2ccc(Br)cc2)CC1c1cccs1 (configuration not stated),inactive,–
Fc1cccc(NCc2ccccc2-c2nnc(-c3ccccc3Cl)o2)c1,–,inconclusive: 55.7% [activator] [at 46.1 µM]
CN1C(=O)NC(=O)C(N=Nc2ccc(Cl)cc2)C1=O (configuration not stated),"inconclusive: 14.1 µM [inhibitor, single point]",–
CCC(C)N(C(=O)CSc1nc(-c2cccs2)nc2ccccc12)C1CCS(=O)(=O)C1 (configuration not stated),"inconclusive: 35.5 µM [inhibitor, partial curve, poor fit]",–
Cc1ccc(C(=O)Oc2ccc(C(=O)COC(=O)C3CC(=O)N(Cc4ccco4)C3)cc2)cc1 (configuration not stated),"inconclusive: 17.8 µM [activator, partial curve, poor fit]",–
CN(C(=O)CCCN1C(=O)c2ccccc2C1=O)C1CCCCC1,"inconclusive: 11.2 µM [activator, single point]",–
CCC(C)C12CN3CCN(CC(C)(C3)C1=O)C2 (configuration not stated),"inconclusive: 6.31 µM [activator, single point]",–
O=C(CNc1cccc(Cl)c1)c1ccc(Cl)cc1,"inconclusive: 0.0651 µM [inhibitor, partial curve, poor fit]",–
Cc1ccc(-n2c3c(c(=O)[nH]c2=O)C(NS(=O)(=O)c2ccc(Cl)cc2)(C(F)(F)F)C(=O)N3)cc1 (configuration not stated),inactive,–
Cc1ccc(C(=O)C[n+]2ccc(Cc3ccccc3)cc2)cc1,"inconclusive: 14.1 µM [inhibitor, single point]",–
O=C(CN1CCCCC1)Nc1ccc(NC(=O)c2ccc(Cl)cc2)cc1Cl,"inconclusive: 18.3 µM [inhibitor, single point]",–
CCOc1ccc(OCC(=O)OCC(=O)Nc2ccc3[nH]c(=O)[nH]c3c2)cc1,inactive,–
COC(=O)c1sc(NC(=O)C2c3ccccc3Oc3ccccc32)c(C(=O)OC)c1C,"inconclusive: 35.5 µM [inhibitor, single point]",–
Nc1cccc(N=Cc2c(O)n(Cc3ccc(F)cc3)c(=O)[nH]c2=O)c1,"inconclusive: 0.282 µM [inhibitor, full curve, poor fit]",–
COc1cccc2c1cc1c(=O)n(CC(=O)N3CCCCC3)nc(C)n12,"inconclusive: 4.47 µM [activator, full curve, poor fit]",–
Cc1cccc(/C=N/NC(=O)c2ccc(Br)cc2)c1,"inconclusive: 3.16 µM [activator, partial curve, poor fit]",–
Cc1nn2c(N3CCN(C)CC3)cc(C(C)(C)C)nc2c1-c1ccccc1,active: 10 µM,–
